Experimental findings from PubChem BioAssay AID248 (DTP/NCI, 2004) are described below.

The experiment deals with L1210 leukemia ip in BDF1 mice, survival T/C. The experiment in a line: NCI In Vivo Anticancer Drug Screen. Data for tumor model L1210 Leukemia (intraperitoneal) in B6D2F1 (BDF1) mice. The conditions noted are these: T/C endpoint: mean survival time, higher T/C = longer survival.
[1] abbreviates: dose: 400.0 mg/kg/injection, schedule: Q04DX003 (ip), vehicle: Klucel (hydroxypropylcellulose) (HPC).
The mark [2] stands for this setting: dose: 100.0 mg/kg/injection, schedule: Q04DX002 (ip), vehicle: Klucel (hydroxypropylcellulose) (HPC).

The list does not hold the whole screen: it gathers tests that were run many times, whatever their T/C, doses with no T/C, and many T/C values between a quarter and a half above the control. Other doses and runs of a compound stand elsewhere. T/C is the treated group as % of the vehicle group. Some doses have a count of surviving animals in place of a T/C: the source holds a T/C of zero for them, seemingly a mark for toxic or unscored doses. Some survivor counts are full or nearly so, which does not show that the dose was tolerated: survival well below the control is almost never listed, so the zero probably covers shortened survival too. Survivors were counted at the toxicity check, usually on the fifth day, unless a day is given; later deaths do not show. Schedule codes are those of the source, taken here to give the interval after Q, in days (D) or hours (H), and the number of doses after X. For survival time, the PubChem record calls one and a half times the control and up active, and a quarter to a half above the control has no call in these data; cut-offs in other NCI protocols can differ. Some schedules carry Z or #; the key to these is not given. Some entries hold several experiments; the values are given in rising order.

Take `BrCCN(CCBr)c1ccc2c3c(cccc13)-c1ccccc1-2`: the T/C (dose: 1.5 mg/kg/injection, schedule: Q01DX Z (ip), vehicle: other) is 131 % of control; the T/C (dose: 2.0 mg/kg/injection, schedule: Q01DX Z (ip), vehicle: other) was 131 % of control; the T/C (dose: 3.0 mg/kg/injection, schedule: Q01DX Z (ip), vehicle: other) was 133 % of control; the T/C (dose: 3.2 mg/kg/injection, schedule: Q01DX Z (ip), vehicle: other) was 140 % of control; the T/C (dose: 5.0 mg/kg/injection, schedule: Q01DX Z (ip), vehicle: other) is 127 and 134 % of control. For the same compound, the survivor count is recorded as 6 of 6 (dose: 12.5 mg/kg/injection, schedule: Q01DX009 (ip), vehicle: acetone); 1 of 6 (dose: 25.0 mg/kg/injection, schedule: Q01DX009 (ip), vehicle: acetone); 6 of 6 (dose: 50.0 mg/kg/injection, schedule: Q01DX009 (ip), vehicle: saline); 3 of 6 (dose: 100.0 mg/kg/injection, schedule: Q01DX009 (ip), vehicle: saline); 1 of 6 (dose: 200.0 mg/kg/injection, schedule: Q01DX009 (ip), vehicle: saline); 4 of 6 (dose: 200.0 mg/kg/injection, schedule: Q04DX003 (ip), vehicle: saline). Also, where the note is “dose: 400.0 mg/kg/injection, schedule: Q04DX003 (ip), vehicle: saline”, the survivor count was 1 of 6.
For the compound `CCOC(=O)C(NC(C)=O)(C(=O)OCC)C(=O)c1ccc(Cl)cc1`, for the setting “dose: 400.0 mg/kg/injection, schedule: Q01DX001 (ip), vehicle: carboxymethylcellulose (CMC)”, the survivor count was 4 of 4.
As to `CCCCOP(=O)(OCCCC)O/C(C)=C(\C)OP(=O)(OCCCC)OCCCC`, the survivor count (dose: 350.0 mg/kg/injection, schedule: Q01DX009 (ip), vehicle: carboxymethylcellulose (CMC)) is given as 1 of 6.
As for `Fc1ccc(CSC(=S)Nc2ccc(Cl)c(Cl)c2)cc1`, the survivor count (dose: 300.0 mg/kg/injection, schedule: Q04DX003 (ip), vehicle: saline with Tween-80) is recorded as 1 of 3.
As for `CC(C)C(NC(=O)NCCCl)c1ccccc1` (stereo unspecified), the survivor count under setting [1] is 3 of 6.
Turning to `CC(C)N=Cc1ccccc1O.CC(C)N=Cc1ccccc1O.[Co]`, the survivor count (dose: 400.0 mg/kg/injection, schedule: Q01DX009 (ip), vehicle: saline sonified) is given as 2 of 6.
Consider `CCCCOc1ccc(C=Nc2ccc(C)cc2)cc1`, for which the survivor count (dose: 200.0 mg/kg/injection, schedule: Q01DX009 (ip), vehicle: Klucel (hydroxypropylcellulose) (HPC)) is listed as 6 of 6.
`O=CNNC(=O)c1ccccn1`: the survivor count (dose: 200.0 mg/kg/injection, schedule: Q01DX001 (ip), vehicle: water) is recorded as 2 of 4 and the survivor count (dose: 400.0 mg/kg/injection, schedule: Q01DX001 (ip), vehicle: water) is 0 of 4.
For `OC1(c2ccccc2)CCN(Cc2ccccc2)CC1`, the survivor count is recorded as 0 of 6 (dose: 200.0 mg/kg/injection, schedule: Q01DX001 (ip), vehicle: Klucel (hydroxypropylcellulose) (HPC)) and 0 of 6 (dose: 400.0 mg/kg/injection, schedule: Q01DX001 (ip), vehicle: Klucel (hydroxypropylcellulose) (HPC)).
Turning to `CCCCCCP(=O)(CCCCCC)C1CCCC1`, the survivor count (dose: 400.0 mg/kg/injection, schedule: Q04DX003 (ip), vehicle: saline with Tween-80) is listed as 4 of 6.
Consider `Cc1cc(C)c(C(=O)C=O)c(C)c1`, for which, under setting [1], the survivor count is reported as 6 of 6.
`C/C(CCl)=N\Nc1ccc([N+](=O)[O-])cc1[N+](=O)[O-]`: the survivor count (dose: 400.0 mg/kg/injection, schedule: Q01DX001 (ip), vehicle: saline with Tween-80) was 1 of 6.
`CC(C)(O)C(=O)NC/C=C/c1ccccc1`: the survivor count is, setting by setting: (dose: 100.0 mg/kg/injection, schedule: Q01DX009 (ip), vehicle: saline with Tween-80) 5 of 6; (dose: 200.0 mg/kg/injection, schedule: Q01DX009 (ip), vehicle: saline with Tween-80) 0 of 6; (dose: 400.0 mg/kg/injection, schedule: Q01DX009 (ip), vehicle: saline with Tween-80) 0 of 6.
On to `Cc1cc(Cc2cccc[n+]2[O-])c2ccccc2n1`, for which the survivor count under setting [1] is 0 of 6.
In the case of `[Cl][Pb]([Cl])([c]1ccccc1)[c]1ccccc1`, the survivor count reads like this: under setting [2], 3 of 3; (dose: 200.0 mg/kg/injection, schedule: Q04DX002 (ip), vehicle: Klucel (hydroxypropylcellulose) (HPC)) 3 of 3; (dose: 400.0 mg/kg/injection, schedule: Q04DX002 (ip), vehicle: Klucel (hydroxypropylcellulose) (HPC)) 2 of 3.
For `COc1cccc(N=CN(C)C)c1`, the survivor count is, setting by setting: (dose: 200.0 mg/kg/injection, schedule: Q01DX001 (ip), vehicle: saline) 2 of 4; (dose: 400.0 mg/kg/injection, schedule: Q01DX001 (ip), vehicle: saline) 0 of 4.
On to `COC12C(COC(=O)NCCO)C3=C(C(=O)C(C)=C(N)C3=O)N1CC1NC12` (stereo unspecified), for which the T/C is, setting by setting: (dose: 20.0 mg/kg/injection, schedule: Q01DX009 (ip), vehicle: saline) 140 % of control; (dose: 43.0 mg/kg/injection, schedule: Q01DX003 (ip), vehicle: Klucel (hydroxypropylcellulose) (HPC)) 149 % of control; (dose: 65.0 mg/kg/injection, schedule: Q01DX001 (ip), vehicle: Klucel (hydroxypropylcellulose) (HPC)) 134 % of control; (dose: 65.0 mg/kg/injection, schedule: Q01DX003 (ip), vehicle: Klucel (hydroxypropylcellulose) (HPC)) 149 % of control; (dose: 100.0 mg/kg/injection, schedule: Q01DX001 (ip), vehicle: Klucel (hydroxypropylcellulose) (HPC)) 139 % of control; under setting [2], 137 % of control. The survivor count is, setting by setting: (dose: 21.0 mg/kg/injection, schedule: Q04DX003 (ip), vehicle: saline) 10 of 10; (dose: 43.0 mg/kg/injection, schedule: Q01DX001 (ip), vehicle: saline) 10 of 10; (dose: 43.0 mg/kg/injection, schedule: Q04DX003 (ip), vehicle: saline) 10 of 10; (dose: 65.0 mg/kg/injection, schedule: Q01DX001 (ip), vehicle: saline) 10 of 10; (dose: 65.0 mg/kg/injection, schedule: Q01DX009 (ip), vehicle: Klucel (hydroxypropylcellulose) (HPC)) 10 of 10; (dose: 65.0 mg/kg/injection, schedule: Q04DX003 (ip), vehicle: saline) 10 of 10. Also, the survivor count is on record as 9 of 10 (dose: 100.0 mg/kg/injection, schedule: Q01DX001 (ip), vehicle: saline); 6 of 10 (dose: 100.0 mg/kg/injection, schedule: Q01DX009 (ip), vehicle: Klucel (hydroxypropylcellulose) (HPC)); 10 of 10 (dose: 100.0 mg/kg/injection, schedule: Q04DX003 (ip), vehicle: saline); 6 of 10 (dose: 150.0 mg/kg/injection, schedule: Q01DX001 (ip), vehicle: saline); 1 of 10 (dose: 150.0 mg/kg/injection, schedule: Q01DX009 (ip), vehicle: Klucel (hydroxypropylcellulose) (HPC)); 10 of 10 (dose: 150.0 mg/kg/injection, schedule: Q04DX003 (ip), vehicle: saline). Besides, the survivor count is 10 of 10 (dose: 225.0 mg/kg/injection, schedule: Q01DX001 (ip), vehicle: saline); 0 of 10 (dose: 225.0 mg/kg/injection, schedule: Q01DX009 (ip), vehicle: Klucel (hydroxypropylcellulose) (HPC)); 7 of 10 (dose: 225.0 mg/kg/injection, schedule: Q04DX003 (ip), vehicle: saline).
Regarding `Cc1cc(C)c(B2OB(c3c(C)cc(C)cc3C)O2)c(C)c1`, the survivor count (dose: 400.0 mg/kg/injection, schedule: Q01DX009 (ip), vehicle: Klucel (hydroxypropylcellulose) (HPC)) is on record as 0 of 6.
As to `CC(=O)NCc1ccc(N)cc1`, the survivor count is 0 of 6 (dose: 25.0 mg/kg/injection, schedule: Q01DX009 (ip), vehicle: water); 6 of 6 (dose: 50.0 mg/kg/injection, schedule: Q01DX009 (ip), vehicle: water); 6 of 6 (dose: 100.0 mg/kg/injection, schedule: Q01DX009 (ip), vehicle: water); 6 of 6 (dose: 200.0 mg/kg/injection, schedule: Q01DX009 (ip), vehicle: water); 6 of 6 (dose: 400.0 mg/kg/injection, schedule: Q01DX009 (ip), vehicle: water).
